Values from PubChem BioAssay AID1224828 (NIAID, 2016)
Aim: 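Find genes required for NF-kappaB p65 moving into the nucleus after LPS in mouse macrophages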 (primary screen). System: mouse RAW264.7 G9 macrophage reporter cells (GFP-p65, Tnf promoter-mCherry). Reagent: siRNA pool against mouse genes, 100 nM. Duration: 2 days siRNA transfection, then 40 min LPS before fixation. Treatment: LPS (Salmonella minnesota R595) at 10 ng/ml. Detection: 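Imaged p65 nuclear translocation ratio, normalised to the plate median, converted to robust z-scores and averaged across two replicates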. Scale: p65 translocation robust z-score: higher = more nuclear NF-kappaB p65 after LPS than the plate median; nuclear/cytoplasmic p65 ratio: higher = more nuclear NF-kappaB p65. Active means: 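Active if robust z is above 3.3 (negative regulators) or below -1.56, the Tlr4 control median (positive regulators); activity score 50 or more; control wells not called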. Meaning of the calls: active = hit (p65 shift raised or lowered); inactive = no clear change.
Shown is a random part of about 17,000 reagents tested. 762 of them (4.5%) were called active. 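Active calls include both raised and lowered p65 entry, mostly lowered; wells with fewer than 50 cells lack a z-score.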 Raw values are not corrected between plates. No sequences are given here.

Or4c100 gave p65 translocation robust z-score -0.69; nuclear/cytoplasmic p65 ratio, rep 1 = 1.55; nuclear/cytoplasmic p65 ratio, rep 2 = 1.48; low cell count flag enough cells to score; inactive. Silencing of Trafd1 resulted in: nuclear/cytoplasmic p65 ratio, rep 1 = 1.29; nuclear/cytoplasmic p65 ratio, rep 2 = 1.68; low cell count flag fewer than 50 cells per well; well left out of scoring; inactive. With knock-down of Or8k20, the screen gave p65 translocation robust z-score -1.39; nuclear/cytoplasmic p65 ratio, rep 1 = 1.29; nuclear/cytoplasmic p65 ratio, rep 2 = 1.33; low cell count flag enough cells to score; inactive. With knock-down of Pum3, the screen gave p65 translocation robust z-score -0.5; nuclear/cytoplasmic p65 ratio, rep 1 = 1.43; nuclear/cytoplasmic p65 ratio, rep 2 = 1.55; low cell count flag enough cells to score; inactive. For Sntn the deposit lists p65 translocation robust z-score 2.2; nuclear/cytoplasmic p65 ratio, rep 1 = 1.68; nuclear/cytoplasmic p65 ratio, rep 2 = 1.82; low cell count flag enough cells to score; inactive. Or2a7 gave p65 translocation robust z-score -0.85; nuclear/cytoplasmic p65 ratio, rep 1 = 1.45; nuclear/cytoplasmic p65 ratio, rep 2 = 1.4; low cell count flag enough cells to score; inactive.

With knock-down of Dtx1, the record shows p65 translocation robust z-score -0.81; nuclear/cytoplasmic p65 ratio, rep 1 = 1.4; nuclear/cytoplasmic p65 ratio, rep 2 = 1.25; low cell count flag enough cells to score; inactive. With knock-down of Ifnar2, the record shows p65 translocation robust z-score -1.04; nuclear/cytoplasmic p65 ratio, rep 1 = 1.2; nuclear/cytoplasmic p65 ratio, rep 2 = 1.26; low cell count flag enough cells to score; inactive.

2 of these entries, reformatted:
Or4c100
- p65 translocation robust z-score: -0.69
- nuclear/cytoplasmic p65 ratio, rep 1: 1.55
- nuclear/cytoplasmic p65 ratio, rep 2: 1.48
- low cell count flag: enough cells to score
- outcome: inactive

Trafd1
- nuclear/cytoplasmic p65 ratio, rep 1: 1.29
- nuclear/cytoplasmic p65 ratio, rep 2: 1.68
- low cell count flag: fewer than 50 cells per well; well left out of scoring
- outcome: inactive

Further entries follow:
Ppp6c scored p65 translocation robust z-score -0.99; nuclear/cytoplasmic p65 ratio, rep 1 = 1.47; nuclear/cytoplasmic p65 ratio, rep 2 = 1.28; low cell count flag enough cells to score; inactive. Vrk2 scored p65 translocation robust z-score 0.15; nuclear/cytoplasmic p65 ratio, rep 1 = 1.5; nuclear/cytoplasmic p65 ratio, rep 2 = 1.4; low cell count flag enough cells to score; inactive. For Nudt1, the values are p65 translocation robust z-score -0.14; nuclear/cytoplasmic p65 ratio, rep 1 = 1.3; nuclear/cytoplasmic p65 ratio, rep 2 = 1.51; low cell count flag enough cells to score; inactive. Against Gpbp1l1, the values are nuclear/cytoplasmic p65 ratio, rep 1 = 1.33; nuclear/cytoplasmic p65 ratio, rep 2 = 1.4; low cell count flag fewer than 50 cells per well; well left out of scoring; inactive.
